Laboratory results: PubChem BioAssay AID1508597 (Cure First, 2020)

Purpose: 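Knock-downs altering ovarian cancer cell survival with or without PARP inhibitor rucaparib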 (primary screen)
Cell system: human ovarian carcinoma lines grown from tumours: OCI-P5x (papillary serous) and OCI-C5x (clear cell)
Reagents: siRNA pool against human genes, 1.25 pmol siRNA per well
Time to read-out: 72 h or 96 h, depending on the cell culture
Conditions: rucaparib 20 µM (about IC30) or vehicle, present until read-out
Rucaparib or vehicle: Vehicle
Cell line: OCI-P5x (serous)
Measured: 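Luminescent ATP-based viability assay read 72 or 96 h after transfection, depending on culture, given as normalised percent viability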
Direction: viability, normalised: higher = more viable cells remaining
Active means: 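Active when normalised viability falls below 80 percent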
Calls: active = viability under 80%; inactive = viability 80% or more
This is a random part of the about 2,100 reagents, under one of the conditions tested. 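Calls flag viability under 80% in either arm, not effects specific to rucaparib; the reference for percent is not stated.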 Some reagents were tested in more than one well and are listed for each. No sequences are given here. Not given: the 100% reference.

gene | technical replicate | viability, normalised (%) | Outcome
BMPR1A (bone morphogenetic protein receptor type 1A) | 1 | 61.3 | active
BMPR1A (bone morphogenetic protein receptor type 1A) | 1 | 102 | inactive
BMPR1A (bone morphogenetic protein receptor type 1A) | 2 | 57.7 | active
BMPR1A (bone morphogenetic protein receptor type 1A) | 2 | 68.6 | active
BMPR1A (bone morphogenetic protein receptor type 1A) | 3 | 74.4 | active
BMPR1A (bone morphogenetic protein receptor type 1A) | 3 | 94.8 | inactive
RPS6KA6 (ribosomal protein S6 kinase A6) | 1 | 80 | active
RPS6KA6 (ribosomal protein S6 kinase A6) | 2 | 79.2 | active
RPS6KA6 (ribosomal protein S6 kinase A6) | 3 | 73.3 | active
ARFGEF2 (ARF guanine nucleotide exchange factor 2) | 1 | 60.3 | active
ARFGEF2 (ARF guanine nucleotide exchange factor 2) | 2 | 44.5 | active
ARFGEF2 (ARF guanine nucleotide exchange factor 2) | 3 | 64.9 | active
UHRF1 (ubiquitin like with PHD and ring finger domains 1) | 1 | 50.1 | active
UHRF1 (ubiquitin like with PHD and ring finger domains 1) | 1 | 77.3 | active
UHRF1 (ubiquitin like with PHD and ring finger domains 1) | 2 | 65.2 | active
UHRF1 (ubiquitin like with PHD and ring finger domains 1) | 2 | 56.2 | active
UHRF1 (ubiquitin like with PHD and ring finger domains 1) | 3 | 63.9 | active
UHRF1 (ubiquitin like with PHD and ring finger domains 1) | 3 | 55.2 | active
TRIM16 (tripartite motif containing 16) | 1 | 73.4 | active
TRIM16 (tripartite motif containing 16) | 2 | 78.3 | active
TRIM16 (tripartite motif containing 16) | 3 | 66.9 | active
AK9 (adenylate kinase 9) | 1 | 61.2 | active
AK9 (adenylate kinase 9) | 2 | 54.4 | active
AK9 (adenylate kinase 9) | 3 | 55.6 | active
POU4F1 (POU class 4 homeobox 1) | 1 | 61.7 | active
POU4F1 (POU class 4 homeobox 1) | 2 | 57.6 | active
POU4F1 (POU class 4 homeobox 1) | 3 | 45.8 | active
PPM1D (protein phosphatase, Mg2+/Mn2+ dependent 1D) | 1 | 97.3 | inactive
PPM1D (protein phosphatase, Mg2+/Mn2+ dependent 1D) | 2 | 82.4 | inactive
PPM1D (protein phosphatase, Mg2+/Mn2+ dependent 1D) | 3 | 106 | inactive
HK3 (hexokinase 3) | 1 | 64.2 | active
HK3 (hexokinase 3) | 2 | 44.3 | active
HK3 (hexokinase 3) | 3 | 60.1 | active
PIK3C2A | 1 | 80.2 | inactive
PIK3C2A | 2 | 97.3 | inactive
PIK3C2A | 3 | 105 | inactive
POLE (DNA polymerase epsilon, catalytic subunit) | 1 | 72.7 | active
POLE (DNA polymerase epsilon, catalytic subunit) | 2 | 69.2 | active
POLE (DNA polymerase epsilon, catalytic subunit) | 3 | 63.1 | active
ENPP3 (ectonucleotide pyrophosphatase/phosphodiesterase 3) | 1 | 65.8 | active
ENPP3 (ectonucleotide pyrophosphatase/phosphodiesterase 3) | 2 | 73.3 | active
ENPP3 (ectonucleotide pyrophosphatase/phosphodiesterase 3) | 3 | 66.7 | active
GDE1 (glycerophosphodiester phosphodiesterase 1) | 1 | 59.4 | active
GDE1 (glycerophosphodiester phosphodiesterase 1) | 2 | 68.7 | active
GDE1 (glycerophosphodiester phosphodiesterase 1) | 3 | 62.3 | active
MAGI2 | 1 | 80.1 | inactive
MAGI2 | 2 | 53.8 | active
MAGI2 | 3 | 62.6 | active
DHX32 (DEAH-box helicase 32 (putative)) | 1 | 75.5 | active
DHX32 (DEAH-box helicase 32 (putative)) | 2 | 83.8 | inactive
DHX32 (DEAH-box helicase 32 (putative)) | 3 | 80.6 | inactive
PFKL (phosphofructokinase, liver type) | 1 | 111 | inactive
PFKL (phosphofructokinase, liver type) | 2 | 95 | inactive
PFKL (phosphofructokinase, liver type) | 3 | 94.9 | inactive
BUB3 (BUB3 mitotic checkpoint protein) | 1 | 58.9 | active
BUB3 (BUB3 mitotic checkpoint protein) | 2 | 64.3 | active
BUB3 (BUB3 mitotic checkpoint protein) | 3 | 62.3 | active

Individual results from the entries so far.
BUB3 (BUB3 mitotic checkpoint protein), technical replicate 2, Outcome = active
Under “Outcome”, GDE1 (glycerophosphodiester phosphodiesterase 1), technical replicate 1 reads active
For “Outcome”, PPM1D (protein phosphatase, Mg2+/Mn2+ dependent 1D), technical replicate 2 has inactive
Entry of MAGI2, technical replicate 1 in “viability, normalised (%)”: 80.1
Result for DHX32 (DEAH-box helicase 32 (putative)), technical replicate 3 under “viability, normalised (%)”: 80.6
Value of HK3 (hexokinase 3), technical replicate 3 under “Outcome”: active
